From PMC4029728

Sequences of proteins named here, by UniProt entry; tags and fusion partners are left off. Residues count along the entry.
UniProt P42224, whole entry E559A: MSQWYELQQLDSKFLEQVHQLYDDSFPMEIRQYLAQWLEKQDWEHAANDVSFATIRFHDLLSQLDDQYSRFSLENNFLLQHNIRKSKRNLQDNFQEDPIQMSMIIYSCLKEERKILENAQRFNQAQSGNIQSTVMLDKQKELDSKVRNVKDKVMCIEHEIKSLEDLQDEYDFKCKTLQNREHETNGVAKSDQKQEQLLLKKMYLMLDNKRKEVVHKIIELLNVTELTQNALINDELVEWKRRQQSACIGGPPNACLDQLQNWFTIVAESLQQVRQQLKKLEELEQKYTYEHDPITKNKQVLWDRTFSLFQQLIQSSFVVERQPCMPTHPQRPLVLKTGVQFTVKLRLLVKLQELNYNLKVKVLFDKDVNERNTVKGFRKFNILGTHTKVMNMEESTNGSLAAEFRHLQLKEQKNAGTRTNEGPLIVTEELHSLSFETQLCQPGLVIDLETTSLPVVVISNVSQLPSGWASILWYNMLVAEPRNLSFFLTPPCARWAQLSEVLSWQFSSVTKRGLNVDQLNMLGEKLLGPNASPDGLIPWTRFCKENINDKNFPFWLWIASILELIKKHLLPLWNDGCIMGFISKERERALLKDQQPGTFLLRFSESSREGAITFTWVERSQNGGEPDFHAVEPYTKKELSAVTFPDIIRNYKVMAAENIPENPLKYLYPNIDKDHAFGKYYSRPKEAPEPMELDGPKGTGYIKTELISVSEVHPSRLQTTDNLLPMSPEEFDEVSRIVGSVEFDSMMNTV
UniProt P42224, 1-746 E559A: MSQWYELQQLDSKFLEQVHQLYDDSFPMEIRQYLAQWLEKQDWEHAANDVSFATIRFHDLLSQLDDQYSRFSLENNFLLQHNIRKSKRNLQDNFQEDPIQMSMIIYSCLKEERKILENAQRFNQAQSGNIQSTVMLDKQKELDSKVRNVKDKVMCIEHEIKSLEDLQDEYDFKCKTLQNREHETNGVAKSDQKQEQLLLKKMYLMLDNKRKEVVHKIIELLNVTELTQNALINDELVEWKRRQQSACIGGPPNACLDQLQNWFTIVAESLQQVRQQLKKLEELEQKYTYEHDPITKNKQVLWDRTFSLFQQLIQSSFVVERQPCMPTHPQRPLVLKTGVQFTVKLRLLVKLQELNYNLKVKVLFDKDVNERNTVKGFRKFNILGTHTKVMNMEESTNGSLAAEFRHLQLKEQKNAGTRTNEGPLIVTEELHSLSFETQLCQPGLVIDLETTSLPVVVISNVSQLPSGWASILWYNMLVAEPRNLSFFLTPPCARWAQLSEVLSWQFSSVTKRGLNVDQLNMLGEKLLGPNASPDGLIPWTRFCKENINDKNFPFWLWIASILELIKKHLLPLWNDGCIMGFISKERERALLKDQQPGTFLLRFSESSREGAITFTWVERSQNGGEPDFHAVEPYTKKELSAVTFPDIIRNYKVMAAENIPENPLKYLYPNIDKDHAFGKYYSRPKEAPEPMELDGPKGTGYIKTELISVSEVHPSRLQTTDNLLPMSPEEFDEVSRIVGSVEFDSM
UniProt P42224, 1-746 E563A: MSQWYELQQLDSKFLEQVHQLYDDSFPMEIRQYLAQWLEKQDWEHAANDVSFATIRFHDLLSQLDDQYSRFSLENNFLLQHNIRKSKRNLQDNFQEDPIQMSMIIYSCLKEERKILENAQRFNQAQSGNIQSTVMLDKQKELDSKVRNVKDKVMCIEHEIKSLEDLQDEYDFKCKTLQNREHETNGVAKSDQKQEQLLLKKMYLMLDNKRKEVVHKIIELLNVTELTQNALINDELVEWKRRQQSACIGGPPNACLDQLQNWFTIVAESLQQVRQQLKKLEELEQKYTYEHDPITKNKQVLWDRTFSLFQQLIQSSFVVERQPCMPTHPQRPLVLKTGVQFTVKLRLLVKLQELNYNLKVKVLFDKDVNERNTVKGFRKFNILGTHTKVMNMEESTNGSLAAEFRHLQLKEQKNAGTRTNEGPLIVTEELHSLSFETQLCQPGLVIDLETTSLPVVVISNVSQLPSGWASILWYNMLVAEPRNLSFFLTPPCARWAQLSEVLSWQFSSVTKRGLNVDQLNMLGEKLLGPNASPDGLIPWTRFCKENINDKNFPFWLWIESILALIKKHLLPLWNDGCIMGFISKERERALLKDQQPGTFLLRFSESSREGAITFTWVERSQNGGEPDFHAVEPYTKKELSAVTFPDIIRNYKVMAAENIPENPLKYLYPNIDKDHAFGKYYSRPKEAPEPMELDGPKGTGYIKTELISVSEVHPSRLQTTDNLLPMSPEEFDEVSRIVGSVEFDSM
UniProt P42224, 1-746: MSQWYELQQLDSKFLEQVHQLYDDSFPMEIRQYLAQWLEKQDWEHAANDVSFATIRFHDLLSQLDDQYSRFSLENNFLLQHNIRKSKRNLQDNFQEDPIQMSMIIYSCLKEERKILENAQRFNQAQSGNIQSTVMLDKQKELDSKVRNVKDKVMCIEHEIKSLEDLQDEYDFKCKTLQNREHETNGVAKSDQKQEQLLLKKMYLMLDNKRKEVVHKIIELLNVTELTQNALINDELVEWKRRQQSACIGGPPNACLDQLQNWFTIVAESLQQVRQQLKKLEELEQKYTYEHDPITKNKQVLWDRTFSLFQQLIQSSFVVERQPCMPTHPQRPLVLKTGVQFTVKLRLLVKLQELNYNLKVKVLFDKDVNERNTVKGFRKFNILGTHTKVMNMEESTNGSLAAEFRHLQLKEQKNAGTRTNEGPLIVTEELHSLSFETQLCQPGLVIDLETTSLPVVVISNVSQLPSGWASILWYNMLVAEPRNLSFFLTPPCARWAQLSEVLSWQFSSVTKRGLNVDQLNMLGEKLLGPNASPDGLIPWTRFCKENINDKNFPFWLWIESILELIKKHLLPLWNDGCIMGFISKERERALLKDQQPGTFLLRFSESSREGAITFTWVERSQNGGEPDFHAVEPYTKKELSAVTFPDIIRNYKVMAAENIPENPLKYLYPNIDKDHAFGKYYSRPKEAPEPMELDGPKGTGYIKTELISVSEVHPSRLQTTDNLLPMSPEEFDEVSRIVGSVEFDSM
UniProt P42224, whole entry E563A: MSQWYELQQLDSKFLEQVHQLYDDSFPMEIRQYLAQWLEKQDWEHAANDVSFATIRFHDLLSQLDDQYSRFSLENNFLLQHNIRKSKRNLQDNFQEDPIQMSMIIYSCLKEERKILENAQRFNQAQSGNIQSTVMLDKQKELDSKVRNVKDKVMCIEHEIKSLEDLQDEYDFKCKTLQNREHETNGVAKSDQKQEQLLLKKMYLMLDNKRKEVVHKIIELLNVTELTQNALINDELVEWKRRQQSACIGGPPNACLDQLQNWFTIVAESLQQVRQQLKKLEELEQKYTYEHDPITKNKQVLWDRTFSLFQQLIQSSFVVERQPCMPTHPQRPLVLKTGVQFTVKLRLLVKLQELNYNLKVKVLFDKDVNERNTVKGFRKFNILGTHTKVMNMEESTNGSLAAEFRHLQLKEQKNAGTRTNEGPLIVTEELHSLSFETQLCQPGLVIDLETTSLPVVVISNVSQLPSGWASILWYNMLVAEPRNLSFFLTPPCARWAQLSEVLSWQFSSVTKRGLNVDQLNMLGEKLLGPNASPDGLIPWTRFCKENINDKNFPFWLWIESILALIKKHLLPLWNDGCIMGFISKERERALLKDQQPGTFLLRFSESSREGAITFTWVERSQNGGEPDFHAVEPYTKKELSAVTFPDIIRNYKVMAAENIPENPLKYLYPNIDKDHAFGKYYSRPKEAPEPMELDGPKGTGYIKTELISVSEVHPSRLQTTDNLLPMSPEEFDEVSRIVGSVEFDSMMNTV
UniProt P42224, whole entry K567A: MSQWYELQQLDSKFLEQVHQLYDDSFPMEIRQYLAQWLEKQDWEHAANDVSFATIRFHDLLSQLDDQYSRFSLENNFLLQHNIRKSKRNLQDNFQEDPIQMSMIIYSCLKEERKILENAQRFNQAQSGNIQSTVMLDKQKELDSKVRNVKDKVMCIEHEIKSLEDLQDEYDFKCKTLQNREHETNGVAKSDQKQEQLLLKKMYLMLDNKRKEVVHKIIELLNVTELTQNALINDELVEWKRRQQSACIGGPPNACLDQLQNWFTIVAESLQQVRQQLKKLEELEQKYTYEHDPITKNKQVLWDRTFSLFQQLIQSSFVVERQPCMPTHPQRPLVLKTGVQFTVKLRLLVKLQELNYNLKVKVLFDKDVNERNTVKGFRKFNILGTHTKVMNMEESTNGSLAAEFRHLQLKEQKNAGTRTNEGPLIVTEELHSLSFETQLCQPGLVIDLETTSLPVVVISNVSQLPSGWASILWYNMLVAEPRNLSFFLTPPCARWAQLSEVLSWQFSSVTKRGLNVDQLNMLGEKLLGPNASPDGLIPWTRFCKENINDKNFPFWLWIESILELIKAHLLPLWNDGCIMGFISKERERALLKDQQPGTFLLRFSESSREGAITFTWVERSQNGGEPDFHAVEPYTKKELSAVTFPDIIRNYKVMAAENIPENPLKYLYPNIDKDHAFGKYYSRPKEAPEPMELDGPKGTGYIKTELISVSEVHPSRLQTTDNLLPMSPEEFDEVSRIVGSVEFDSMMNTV
UniProt P42224, 1-746 K567A: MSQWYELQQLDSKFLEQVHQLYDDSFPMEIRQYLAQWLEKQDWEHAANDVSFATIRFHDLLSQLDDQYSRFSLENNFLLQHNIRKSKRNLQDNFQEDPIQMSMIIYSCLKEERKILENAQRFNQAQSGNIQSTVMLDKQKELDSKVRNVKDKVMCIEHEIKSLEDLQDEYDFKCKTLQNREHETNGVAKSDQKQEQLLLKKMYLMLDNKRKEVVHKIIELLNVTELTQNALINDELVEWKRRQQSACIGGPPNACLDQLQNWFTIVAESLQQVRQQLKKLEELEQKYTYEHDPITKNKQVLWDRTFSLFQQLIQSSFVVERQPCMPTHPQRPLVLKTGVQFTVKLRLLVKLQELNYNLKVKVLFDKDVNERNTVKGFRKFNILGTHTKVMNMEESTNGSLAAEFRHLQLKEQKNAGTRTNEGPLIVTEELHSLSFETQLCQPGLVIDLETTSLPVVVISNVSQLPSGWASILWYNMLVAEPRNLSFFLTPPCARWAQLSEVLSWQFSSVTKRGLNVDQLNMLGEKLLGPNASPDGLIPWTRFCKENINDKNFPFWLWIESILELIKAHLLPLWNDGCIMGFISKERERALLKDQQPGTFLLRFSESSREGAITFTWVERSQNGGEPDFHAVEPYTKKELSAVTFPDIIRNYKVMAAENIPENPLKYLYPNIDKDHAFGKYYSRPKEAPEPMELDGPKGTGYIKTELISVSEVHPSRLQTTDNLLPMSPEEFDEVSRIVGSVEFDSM

Tests used:
[1] = target: STAT1 E559A untagged (human) (UniProt P42224); experiment: pull-down, Western blot; details: IFNg-stimulated extract; protein in a lysate after overexpression
[2] = target: STAT1 WT untagged (human) (UniProt P42224); experiment: pull-down, Western blot; details: IFNg-stimulated extract, protein in a lysate after overexpression
STAT1-GFP E559A (human) [3] = target: STAT1-GFP E559A (human) (UniProt P42224); experiment: EMSA; details: EMSA: 4 ul cell extract + 1 ng 33P duplex, 15 min RT, 4% native gel at 4 C, competition on ice (EMSA buffer composition not given), pull-down 2 h at 4 C, protein in a lysate after overexpression, residues 1-746, protein details: C-terminal GFP
STAT1-GFP E563A (human) [4] = target: STAT1-GFP E563A (human) (UniProt P42224); experiment: EMSA; details: EMSA: 4 ul cell extract + 1 ng 33P duplex, 15 min RT, 4% native gel at 4 C, competition on ice (EMSA buffer composition not given), pull-down 2 h at 4 C, protein in a lysate after overexpression, residues 1-746, protein details: C-terminal GFP
STAT1-GFP WT (human) [5] = target: STAT1-GFP WT (human) (UniProt P42224); experiment: EMSA; details: EMSA: 4 ul cell extract + 1 ng 33P duplex, 15 min RT, 4% native gel at 4 C, competition on ice (EMSA buffer composition not given), pull-down 2 h at 4 C, protein in a lysate after overexpression, residues 1-746, protein details: C-terminal GFP
[6] = target: STAT1 E559A untagged (human) (UniProt P42224); experiment: Tc45 dephosphorylation protection; details: 25 nM DNA, protein in a lysate after overexpression
[7] = target: STAT1 E563A untagged (human) (UniProt P42224); experiment: Tc45 dephosphorylation protection; details: 25 nM DNA, protein in a lysate after overexpression
[8] = target: STAT1 K567A untagged (human) (UniProt P42224); experiment: Tc45 dephosphorylation protection; details: protein in a lysate after overexpression
[9] = target: STAT1 WT untagged (human) (UniProt P42224); experiment: Tc45 dephosphorylation protection; details: 25 nM DNA, protein in a lysate after overexpression
[10] = target: STAT1 K567A untagged (human) (UniProt P42224); experiment: pull-down, Western blot; details: no significant difference to 2xGAS, nonspecific binding similar to E559A; protein in a lysate after overexpression
STAT1-GFP K567A (human) = STAT1-GFP K567A (human) (UniProt P42224); experiment: EMSA; details: EMSA: 4 ul cell extract + 1 ng 33P duplex, 15 min RT, 4% native gel at 4 C, competition on ice (EMSA buffer composition not given), pull-down 2 h at 4 C, protein in a lysate after overexpression, residues 1-746, protein details: C-terminal GFP
STAT1-GFP E559A (human) [11] = target: STAT1-GFP E559A (human) (UniProt P42224); experiment: competition EMSA (off-rate); details: 750-fold unlabelled M67, slower dissociation than WT; EMSA: 4 ul cell extract + 1 ng 33P duplex, 15 min RT, 4% native gel at 4 C, competition on ice (EMSA buffer composition not given); pull-down 2 h at 4 C; protein in a lysate after overexpression; residues 1-746; protein details: C-terminal GFP; label: 33P by Klenow end-filling
STAT1-GFP E563A (human) [12] = target: STAT1-GFP E563A (human) (UniProt P42224); experiment: competition EMSA (off-rate); details: 750-fold unlabelled M67, slower dissociation than WT; EMSA: 4 ul cell extract + 1 ng 33P duplex, 15 min RT, 4% native gel at 4 C, competition on ice (EMSA buffer composition not given); pull-down 2 h at 4 C; protein in a lysate after overexpression; residues 1-746; protein details: C-terminal GFP; label: 33P by Klenow end-filling
STAT1-GFP WT (human) [13] = target: STAT1-GFP WT (human) (UniProt P42224); experiment: competition EMSA (off-rate); details: 750-fold unlabelled M67, hardly detectable after 10 min; EMSA: 4 ul cell extract + 1 ng 33P duplex, 15 min RT, 4% native gel at 4 C, competition on ice (EMSA buffer composition not given); pull-down 2 h at 4 C; protein in a lysate after overexpression; residues 1-746; protein details: C-terminal GFP; label: 33P by Klenow end-filling
[14] = label: 33P by Klenow end-filling
[15] = increased vs WT, label: 33P by Klenow end-filling

CGTTTCCCCGAAATTGACGGATTTCCCCGAAAC (double strand) [2xGAS biotin]
binding result [1]: binds
binding result [2]: binds

CGTTTCCCCGAAATTGACGGATTTACCCCAAC (double strand) [GAS-nonGAS]
binding result (STAT1-GFP E559A (human) [3]; tetramer > dimer): binds
binding result (STAT1-GFP E563A (human) [4]; tetramer > dimer): binds
binding result (STAT1-GFP WT (human) [5]; dimer > tetramer): binds
binding result ([6]; more protected than WT): binds
binding result ([7]; more protected than WT): binds
binding result ([8]; 25 nM DNA, protection irrespective of GAS): binds
binding result ([9]; less protected than E559A/E563A): binds more weakly

CGTTTACCCCAAATTGACGGATTTACCCCAAC (double strand) [2xnonGAS biotin]
binding signal [1]: 4 fold vs WT
binding result [10]: binds
binding result ([2]; 4-fold below E559A): binds more weakly

CGTTTCCCCGAAATTGACGGATTTCCCCGAAAC (double strand) [2xGAS]
binding result (STAT1-GFP E559A (human) [3]; tetramer > dimer): binds
binding result (STAT1-GFP E563A (human) [4]; tetramer > dimer): binds
binding result (STAT1-GFP K567A (human); weak tetramer binding): binds more weakly
binding result (STAT1-GFP WT (human) [5]; tetramer > dimer): binds
binding result [6]: binds
binding result [7]: binds
binding result ([8]; 25 nM DNA): binds
binding result [9]: binds

CTGCTTCCCTTTCCTACTAGCTGGAAATCCA (double strand) [CCL2 mutant]
binding result (STAT1-GFP K567A (human); [14]): no binding
binding result (STAT1-GFP WT (human) [5]; [14]): no binding

CGACATTTCCCGTAAATCTG (double strand) [M67]
binding result (STAT1-GFP E559A (human) [3]; [15]): binds
binding result (STAT1-GFP E563A (human) [4]; [15]): binds
binding result (STAT1-GFP K567A (human); virtually no binding, label: 33P by Klenow end-filling): no binding
binding result (STAT1-GFP WT (human) [5]; [14]): binds
binding result (STAT1-GFP E559A (human) [11]): binds
binding result (STAT1-GFP E563A (human) [12]): binds
binding result (STAT1-GFP WT (human) [13]): binds

CTGCTTCCCTTTCCTACTTCCTGGAAATCCA (double strand) [CCL2 native]
binding result (STAT1-GFP K567A (human); [14]): binds more weakly
binding result (STAT1-GFP WT (human) [5]; [14]): binds

CGTTTACCCCAAATTGACGGATTTACCCCAAC (double strand) [2xnonGAS]
binding result (STAT1-GFP E559A (human) [3]; below detection threshold): no binding
binding result (STAT1-GFP E563A (human) [4]; below detection threshold): no binding
binding result (STAT1-GFP K567A (human); below detection threshold): no binding
binding result (STAT1-GFP WT (human) [5]; below detection threshold): no binding
binding result ([8]; protection irrespective of GAS): binds

At least one result comes from cells or an extract, where the contact may be indirect. For part of these data: Negatives hold for the conditions tested. For part of these data: At least one verdict was read from the data and is not stated in words by the source. For at least one entry, the source does not settle the construct or the ends of the probe. For part of these data: Weaker means in comparison with the reference protein, sequence or condition of that experiment. For part of these data: The direction of at least one scale is not stated here.
